Screening data

From PubChem BioAssay record AID1159506 (NCATS, 2015).

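Genome-wide siRNA knockdown in TC32 Ewing sarcoma cells, comparing luciferase light from an NR0B1-promoter reporter with a CMV-promoter reporter 48 hours after transfection. Each siRNA was applied at 20 nM. A z-score of the log NR0B1-over-CMV signal, less the median of siRNAs with the same seed; more negative means a stronger specific loss of the NR0B1 reporter.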

The strongest results of the screen are mostly left out here. Sequences are the guide (antisense) strand, without overhang.

Sequence,target gene,seed-corrected z-score
UCUAUGUCCAUCAUAUUUG,LOXL3,-0.03638
UCUAUCACCAUCUUUAUCC,MIB1,0.477
UCUAGGUCCACCAAGACUG,TUBB1,0.8301
UUAGUAAACAAUGACGAAG,RIC8B,0.2491
UAGGAUACUUGUUUGCUGG,HDGFRP3,0.7806
UAGUCUAUCUUUGUGCACG,MATN2,0.1358
UAAGAUCCGAUUUUGGUUC,HN1L,-0.04563
UCUGUUGAUCCUGUGAAGG,ALDH1A1,0.9335
UGACGUACCAGGUACCCAC,SLC38A7,-0.8846
UAACGUAUUCUUCCAAAGC,NR2F2,-0.5661
AAUUGGACUGCUGAGACUC,AFF4,-0.1303
UGCUAGAUGAUAGAUAGGG,SMOX,-0.03405
UGAUGUUCACUUCUACUGC,BPIFB4,-1.828
AAAGUUUCUAUUGGAACCC,ACTL8,-0.6545
UCUGGAUCCACUCAAAGUG,PRSS21,-1.038
UUACGAAGCAUGUCAUGGG,UBE3B,-0.9656
UUGAGGCACAUUUCGUAGG,FBXO6,-1.035
UGAUGAAUCUUCUCCACAC,LOC729307,-0.2893
UUUAUCGAAAGCAUCCUUC,PDCD6IP,0.05612
UGAAUAUCCCAUGAUAACC,SRPK1,-0.00536
UCUUCUACCUGUAGGAAGC,KBTBD2,0.2685
AAUAUGUCCACUGUUGUCC,C16orf96,-1.169
UUCCUAGCAGCAUAGGCAG,SDSL,-0.3
UUCGCACUCAUUUUCAUAC,BFSP1,0.1132
UCCUAUACCUCUUCUAUCG,ZNF415,0.3419
CGUUCUGCCACACAGUUGG,FKBP9P1,-1.216
UUCAGUACAGAGAUAUGGG,ZNF883,0.3824
UGAAGAUCUGCCGUCGCUG,CDT1,0.9577
UUUUCAUACCUGAUGAUGU,LOC643085,0.2592
UUCAAAGUCAAUAUAUCCC,PCDHA4,0.5045
UUUAGUUGGUCCAAUGUUC,FUCA1,-0.5235
UUUCGUUCUACCUCCACUG,CCDC150,-0.4651
ACAAGUACACCAGUGAAUG,PACRG-AS3,-0.7417
AGGCAUAUUAGGAAAAUGC,NGFRAP1,0.8275
UCAUUGGUGCACGCUCUGC,S100A3,-0.6201
UCAGGUAGAAGAAGUUUCC,RSU1,-0.7375
UAAGAGCGGAGCAAUGUCC,PLBD1,0.344
UUUGGUAGGUCAGCAGAGG,ADAT2,3.753
CAGUCUGAAAGUUCACAGC,LGALS9,0.261
UUGCAUUCUUGAGCAAUGC,TRIML2,0.248
UGAUAUGAAGUCUCGAUCC,CLSTN2,0.1916
UCGUUUAUGACUGUUUCUG,FRAT2,-1.44
UAGGGUCUGACAAUGCAUC,TSFM,1.314
UAUGUGAAUAUGCUAUUGA,LOC650293,-0.4352
UUAGUACGAAGAGAUGUUC,CCT6A,-0.4093
UACUAGAGCAUCAUUAGGC,TTC6,-0.5104
UACUGGAAUAGGGCUCUCA,UBASH3A,0.5061
UGAAUGUCUGGGUCAAAAC,LRRC14B,-0.6396
UUAUUGACAUAGACAGUGC,TECTA,0.1396
UCACCUUACAGAGUCUGGG,PAQR5,-0.2254
UAUGUCAUCUGUAACAGGC,BRD8,-0.6923
UAAGUACCAUUGCUCCUCC,ZNF512,1.463
UGUAGGUAAAGAUUCGUCG,MKS1,0.3307
UAAAAUGCUAAGGCAUGGU,FGF14-IT1,0.7176
UUUGCGGACACCCUGAUAC,GZF1,0.486
UUCUCGAGUAGCAUAAUUC,EIF3A,1.444
UUUCUGAGCCUUCGAAUGC,FOXL2NB,-0.2174

The last 5 entries again:

| Sequence | target gene | seed-corrected z-score |
|---|---|---|
| `UGUAGGUAAAGAUUCGUCG` | MKS1 | 0.3307 |
| `UAAAAUGCUAAGGCAUGGU` | FGF14-IT1 | 0.7176 |
| `UUUGCGGACACCCUGAUAC` | GZF1 | 0.486 |
| `UUCUCGAGUAGCAUAAUUC` | EIF3A | 1.444 |
| `UUUCUGAGCCUUCGAAUGC` | FOXL2NB | -0.2174 |